{
  "source": "paper PMC7394235",
  "binders": {"B1": {"name": "CML9-AD (AtCML9 in pGADT7) (protein, UniProt Q9S744 1-151)", "chain": "MADAFTDEQIQEFYEAFCLIDKDSDGFITKEKLTKVMKSMGKNPKAEQLQQMMSDVDIFGNGGITFDDFLYIMAQNTSQESASDELIEVFRVFDRDGDGLISQLELGEGMKDMGMKITAEEAEHMVREADLDGDGFLSFHEFSKMMIAASY"}, "B2": {"name": "CML9-cCFP (protein, UniProt Q9S744 1-151)", "chain": "B1 chain"}, "B3": {"name": "CML10 (AD fusion in pGADT7) (protein, UniProt P30187 1-191)", "chain": "MANKFTRQQISEFREQFSVYDKNGDGHITTEEFGAVMRSLGLNLTQAELQEEINDSDLDGDGTINFTEFLCAMAKDTYSEKDLKKDFRLFDIDKNGFISAAEMRYVRTILRWKQTDEEIDEIIKAADVDGDGQINYREFARLMMAKNQGHDTKYDTTGGTLERDLAAGVAKNIIAAPMTDFIKNLFEALFS"}},
  "key": {"[1]": {"molecular_target": "T1, MLO10-CT fragment P5 (536-569 aa, BD fusion) (Arabidopsis thaliana) (UniProt Q9FKY5)", "T1 sequence": "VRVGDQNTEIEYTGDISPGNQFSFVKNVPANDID", "experiment": "two-hybrid; MLO10-CT or its fragments P1-P5 as BD fusion, CaMs/CMLs as AD fusion (pGADT7), co-transformed into yeast AH109; selection on SD lacking Leu, Trp, His with 1.5 mM 3-AT; X-Gal filter assay"}, "[2]": {"molecular_target": "T2, MLO10-CT-BD (C-terminal of AtMLO10, 434-569 aa) (Arabidopsis thaliana) (UniProt Q9FKY5)", "T2 sequence": "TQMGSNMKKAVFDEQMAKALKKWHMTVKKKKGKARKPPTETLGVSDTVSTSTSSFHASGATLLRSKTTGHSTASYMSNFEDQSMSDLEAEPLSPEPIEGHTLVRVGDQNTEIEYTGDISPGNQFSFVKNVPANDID", "experiment": "two-hybrid; MLO10-CT or its fragments P1-P5 as BD fusion, CaMs/CMLs as AD fusion (pGADT7), co-transformed into yeast AH109; selection on SD lacking Leu, Trp, His with 1.5 mM 3-AT; X-Gal filter assay"}, "[3]": {"molecular_target": "T3, MLO10-nVenus (Arabidopsis thaliana) (UniProt Q9FKY5)", "T3 sequence": "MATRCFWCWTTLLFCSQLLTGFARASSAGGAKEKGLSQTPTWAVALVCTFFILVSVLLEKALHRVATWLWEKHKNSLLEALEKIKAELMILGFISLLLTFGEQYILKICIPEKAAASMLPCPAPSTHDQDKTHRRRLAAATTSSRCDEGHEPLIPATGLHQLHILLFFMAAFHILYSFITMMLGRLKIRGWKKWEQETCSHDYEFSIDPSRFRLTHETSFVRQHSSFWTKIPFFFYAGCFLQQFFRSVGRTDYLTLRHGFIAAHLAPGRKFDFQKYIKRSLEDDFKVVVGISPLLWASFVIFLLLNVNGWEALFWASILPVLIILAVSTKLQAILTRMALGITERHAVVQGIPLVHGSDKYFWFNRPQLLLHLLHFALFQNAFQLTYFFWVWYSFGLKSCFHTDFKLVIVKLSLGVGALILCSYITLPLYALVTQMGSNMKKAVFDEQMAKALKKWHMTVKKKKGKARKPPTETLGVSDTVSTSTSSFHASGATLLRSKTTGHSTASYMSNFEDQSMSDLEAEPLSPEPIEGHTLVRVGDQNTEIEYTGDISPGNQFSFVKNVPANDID", "experiment": "split reporter; BiFC: MLO10-nVenus and CML9-cCFP co-expressed in Arabidopsis mesophyll protoplasts, 16 h at 23°C in the dark, confocal microscopy"}},
  "note": "No constants are given. Whether binding was seen depends on the method and setting. For some of these results: In cells and extracts the contact can be indirect. Some results given as binding are weak or reduced against the parent protein; the word gives no strength. Sequences can lack the tags named with a protein.",
  "data": [
    {"binder": "B1", "values": [
      {"measurement": "binding", "setting": "[1]", "value": "binds"},
      {"measurement": "binding", "setting": "[2]", "value": "binds"}
    ]},
    {"binder": "B2", "values": [
      {"measurement": "binding", "setting": "[3]", "value": "binds"}
    ]},
    {"binder": "B3", "values": [
      {"measurement": "binding", "setting": "[2]", "value": "no binding"}
    ]}
  ]
}
